63 compounds from PubChem BioAssay AID493014 (National Center for Advancing Translational Sciences (NCATS), 2011) can be followed below.

A word on the AC50: it is the concentration giving half of the maximal activity seen.

The assay can be described thus: qHTS Assay to Find Inhibitors of Chronic Active B-Cell Receptor Signaling. Conditions: ABC-DLBCL IkBa-CBG/CBR reporter, luminescence ratio (green luciferase fused to IkBa over red control in TMD8 lymphoma cells), 4 h. In a few lines: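 Cell line TMD8 (human ABC DLBCL), stably expressing tet-inducible CBG68-IkBa fusion and CBR; IMDM/0.5% FBS; cpd up to 46 uM; dox induction, 4 h, 37C/5% CO2; dual luminescence; green/red ratio; MG132 control.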
Background: qHTS replaces the single test concentration by a dilution series.

The mark [1] stands for this setting: measured here: CBR red luminescence, cell number.
Setting [2] is: measured here: IkBa-CBG green luminescence.

Some of the results follow. These are further read-outs of the screen, such as a control signal, another cell line or another target. No call is given for them. The list favours compounds with an active or inconclusive main result. Words in brackets tell the shape of the fitted curve; partial curves, single points and poor fits give uncertain potencies.

With `NS(=O)(=O)c1cccc(NC(=O)Nc2ccccc2)c1`, under setting [1], the concentration at half-maximal activity (AC50) was 7.08 µM [falling, partial curve]. For `COc1ccc(-c2ccc(NC(=O)c3ccco3)cc2)nn1`, the AC50 under setting [1] is 3.66 µM [falling, full curve]. In the case of `O=C1Nc2ccccc2/C1=C/c1cccnc1`, the AC50 under setting [1] is 11.2 µM [falling, partial curve, poor fit].

`CCOc1ccc(Sc2cc(C(=O)NCCc3ccc(OC)c(OC)c3)c3ccccc3n2)cc1`: under setting [1], the concentration at half-maximal activity (AC50) was 5.01 µM [rising, single point].

In the case of `CCOC(=O)c1ccc(N2C(=O)c3n[nH]c(C)c3C2c2ccc(OC)c(OC)c2)cc1` (stereo not given), the AC50 under setting [1] was 29.1 µM [falling, partial curve, poor fit]. As for `COc1ccc([N+](=O)[O-])cc1Nc1c2ccccc2nc2ccccc12`, the AC50 by setting is: under setting [1], 17.8 µM [rising, single point]; under setting [2], 22.4 µM [falling, single point]. Regarding `O=C1CCC(=O)N1CCCCCc1nc(-c2ccccc2)no1`, the AC50 under setting [1] was 20.6 µM [rising, single point]. With `CCN(CC)C(=O)COc1ccc(/C=C(\C#N)S(=O)(=O)c2ccccc2)cc1OC`, the AC50 under setting [1] was 35.5 µM [falling, single point].

For `CC(=O)N[C@H]1C[C@@H]1c1ccccc1`, the AC50 under setting [1] is 32.6 µM [falling, single point].

As to `NC(=O)NC(c1ccccc1)c1ccccc1F` (stereo not given), the AC50 under setting [1] is 29.1 µM [rising, single point]. On the same count and under the same terms, the value for `CCOc1cccc(/C=N/NC(=O)c2cccnc2)c1O` was 7.94 µM [falling, partial curve]. As to `O=C(OCCOc1ccc(Br)cc1)c1ccc(Cl)c(S(=O)(=O)N2CCOCC2)c1`, the AC50 under setting [1] is 32.6 µM [falling, single point]. As to `CCN(C(=O)c1cnc(NC(C)C)cc1C(F)(F)F)c1ccc(Cl)cc1Cl`, the AC50 was 1.78 µM [rising, partial curve, poor fit] under setting [1] and 5.62 µM [falling, partial curve] under setting [2]. As to `Cc1ccccc1NC(=O)c1cc2c(C)nc3ccccc3c2o1`, under setting [1], the AC50 was 35.5 µM [rising, partial curve, poor fit].

For the compound `Cc1cccc(-c2cc3nc4c(c(NCc5ccco5)n3n2)CCCC4)c1`, under setting [1], the AC50 was 0.398 µM [falling, full curve]. `CCCc1cc(=O)n2[nH]c(NC(=O)c3ccco3)nc2n1`: the AC50 under setting [1] is 10 µM [falling, partial curve, poor fit]. For the compound `O=C(N/N=C/c1ccccn1)c1ccncc1`, the AC50 under setting [1] is 10 µM [falling, partial curve, poor fit]. With `O=C(O)C1CCCCC1C(=O)NCc1ccccc1` (stereo not given), the AC50 under setting [1] is 4.61 µM [rising, full curve]. Turning to `CCNc1c(NS(=O)(=O)c2ccc(Br)s2)c(=O)oc2ccccc12`, under setting [1], the AC50 was 10 µM [falling, partial curve].

Regarding `CC1=C(C(=O)Nc2ccccc2)C(c2ccccc2[N+](=O)[O-])NC(=O)N1` (stereo not given), under setting [1], the AC50 was 20 µM [falling, partial curve, poor fit]. Turning to `CCOC(=O)C1CCN(C(=O)COc2ccc(Br)cc2)CC1`, the AC50 under setting [1] is 3.66 µM [falling, full curve]. `COc1ccc(-c2nc(NC(=O)C3CC(=O)N(Cc4ccco4)C3)sc2C)cc1` (stereo not given): the AC50 under setting [1] is 9.2 µM [falling, partial curve]. With `O=C(COc1ccc2ccccc2c1Br)Nc1cccnc1`, under setting [1], the AC50 was 5.62 µM [rising, single point]. As to `COc1cccc(NC(=O)c2cccc(C)c2[N+](=O)[O-])c1`, under setting [1], the concentration at half-maximal activity (AC50) is 7.08 µM [falling, partial curve, poor fit]. With `Cc1onc(-c2ccccc2)c1C(=O)Nc1cccc2nsnc12`, the AC50 under setting [1] is 2.59 µM [falling, single point].

As to `Cc1ccccc1-c1noc(N)c1C#N`, under setting [1], the AC50 was 11.6 µM [falling, partial curve]. Regarding `O=C(O)c1cccc(S(=O)(=O)Nc2ccccc2Cl)c1`, under setting [1], the AC50 is 4.11 µM [falling, partial curve, poor fit]. With `O=C(NCCNS(=O)(=O)c1ccc(Cl)cc1)c1cc(OCC(F)(F)F)ccc1OCC(F)(F)F`, under setting [1], the AC50 is 28.2 µM [rising, single point]. In the case of `COc1ccc(S(=O)(=O)N2CCC(C(=O)Nc3nccs3)CC2)cc1`, under setting [1], the concentration at half-maximal activity (AC50) is 3.55 µM [rising, full curve, poor fit]. As to `CCC(=O)N(NC1=NS(=O)(=O)c2ccccc21)S(=O)(=O)c1ccc(C)cc1`, the AC50 under setting [1] was 5.01 µM [falling, full curve, poor fit]. For the compound `COCCN1CCc2[nH]c(=S)[nH]c(=O)c2C1`, the AC50 under setting [1] was 14.6 µM [falling, partial curve, poor fit].

With `O=S(=O)(c1ccccc1)N(CC(O)Cn1c2ccccc2c2ccccc21)c1ccccc1` (stereo not given), the concentration at half-maximal activity (AC50) under setting [1] is 7.94 µM [falling, partial curve, poor fit]. As to `Cn1c2c(c(=O)[nH]c1=O)C(c1ccc(O)cc1)C1=C(N2)c2ccccc2C1=O` (stereo not given), under setting [1], the AC50 is 12.6 µM [falling, partial curve]. Regarding `COc1ccc(OCC(=O)Nc2ccc(N3CCN(C(=O)c4ccccc4)CC3)c(Cl)c2)cc1`, under setting [1], the AC50 was 0.316 µM [falling, full curve, poor fit]. The same measure, in the same setting: then `CCC(C)NCCC(=O)Nc1ccc(Cl)c(S(=O)(=O)Nc2ccc(Cl)cc2)c1` (stereo not given), with 17.8 µM [falling, single point]; and `CC(C)(C)Nc1nc2cc([N+](=O)[O-])ccc2o1`, with 3.55 µM [rising, full curve, poor fit]; and `Cn1cc(C(=O)NCc2ccc(F)cc2)c(=O)c2cc(S(=O)(=O)N3CCCCC3)ccc21`, with 4.11 µM [rising, partial curve, poor fit]. For the compound `Cc1nc2ccc(Cc3ccc4nc(C)[nH]c4c3)cc2[nH]1`, the AC50 under setting [1] is 18.4 µM [falling, partial curve, poor fit]. As for `Cc1cccc(CN2C(=O)/C(=C\c3ccc(C(=O)NCCCN4CCN(C)CC4)cc3)Oc3ccccc32)c1`, the AC50 under setting [1] was 3.98 µM [rising, full curve, poor fit]. For `O=[N+]([O-])c1ccc(N2CCN(c3ccccc3Cl)CC2)cn1`, the AC50 under setting [1] is 3.55 µM [rising, partial curve, poor fit]. For `Cc1cc(Cl)ccc1OC(C)C(=O)Nc1ccc(C(=O)Nc2ccccc2C(=O)O)cc1` (stereo not given), the AC50 under setting [1] was 5.62 µM [falling, partial curve, poor fit]. Same read-out and setting: then `CC(=O)N1N=C(c2ccccc2OC(=O)/C=C/c2ccccc2)CC1c1ccccc1` (stereo not given), with 12.6 µM [falling, single point]; and `O=C(Nc1ncc(Cc2ccccc2Cl)s1)c1ccc(-c2cccc([N+](=O)[O-])c2)o1`, with 32.6 µM [rising, single point]; and `COc1ccc(/C=N/NC(=O)c2ccccc2O)cc1CSc1ccccn1`, with 7.31 µM [falling, partial curve].

Consider `Cc1ccnc(OC(C(=O)O)C(OCc2ccccc2)(c2ccc(F)cc2)c2ccc(F)cc2)n1` (stereo not given), for which, under setting [1], the AC50 was 20 µM [falling, single point]. Still for that read-out and setting: the value for `Cc1ccc(NC(=O)Cc2c(C(=O)O)n(C)c3ccccc23)cc1F` was 2.82 µM [rising, single point].

Consider `O=[N+]([O-])c1cccnc1NCCc1c[nH]c2ccccc12`, for which the AC50 under setting [1] was 0.316 µM [rising, full curve, poor fit]. As for `COc1cc(NC(=O)N2c3ccccc3Sc3ccccc32)c(C(=O)O)cc1OC`, the AC50 under setting [1] is 35.5 µM [rising, partial curve, poor fit]. As to `Cc1cc(C)cc(CC(Cc2nc3ccccc3[nH]2)c2nc3ccccc3[nH]2)c1` (stereo not given), the AC50 under setting [1] was 41.1 µM [falling, single point].

For `C=CCSc1n[nH]c(-c2ccc(OCCC)cc2)n1`, under setting [2], the AC50 is 13 µM [falling, partial curve, poor fit]. Turning to `CC(=O)N(CCC1(C(C)C)CCOC(C)(C)C1)C(C)c1cccs1` (stereo not given), the AC50 under setting [1] was 15.8 µM [falling, single point]. As to `c1ccc(-c2nc(NCc3cccnc3)c3ccccc3n2)cc1`, the AC50 under setting [1] is 25.1 µM [falling, single point].

With `Cc1nn(-c2nc3ccccc3s2)c(C)c1Oc1ccccc1O`, the AC50 under setting [1] was 29.1 µM [rising, single point]. `O=C(c1ccc(S(=O)(=O)Cc2ccccc2Cl)c([N+](=O)[O-])c1)N1CCOCC1`: the AC50 under setting [1] was 10 µM [falling, partial curve, poor fit]. Consider `COC(=O)N1CCN(c2ccc(C)c(C)c2)CC1`, for which the AC50 under setting [1] was 20 µM [rising, single point].

As for `O=C1C(NS(=O)(=O)c2cccs2)=C(N2CCOCC2)C(=O)c2ccccc21`, the AC50 under setting [1] was 1.58 µM [rising, partial curve, poor fit].

`C[C@H]1CCC[C@]2(C)C[C@H]3OC(=O)C(CN4CCCCCC4)[C@H]3C=C12` (stereo not given in full): under setting [1], the AC50 is 17.8 µM [falling, partial curve, poor fit]. Still for that read-out and setting: then `CCOc1cc(S(=O)(=O)NCCc2ccc(OC)c(OC)c2)c(OCC)cc1-n1cnnn1`, with 0.82 µM [rising, partial curve, poor fit]. Same read-out and setting: then `CSc1nsc2nc(=O)c(/C=C3\C(C)=Nc4ccccc43)c(N)n12`, with 14.1 µM [falling, partial curve]; and `Cc1ccnc(Nc2nc3ccccc3o2)n1`, with 23.1 µM [falling, partial curve]. `O=C1CC(c2c[nH]c3ccccc23)C(=O)N1c1ccccc1` (stereo not given): the AC50 under setting [1] is 0.259 µM [falling, full curve]. For `Cc1ccc(Cl)cc1-n1ncc2c(Nc3ccc4c(c3)OCCO4)ncnc21`, the AC50 under setting [1] was 11.2 µM [rising, partial curve, poor fit]. Take `Cc1ccc2nc(NC(=O)CN3C(=O)NC4(CCCCC4)C3=O)sc2c1`: the concentration at half-maximal activity (AC50) under setting [1] is 8.2 µM [falling, partial curve].
